Earlier results, collected in US20040235801A1, “Therapy for stroke” (priority 2001, published 2004).
For at least one compound, name, drawing or mass did not settle the structure.

Key:
[1] = system: ALS patients; details: mono-therapy, one controlled clinical trial; cited from earlier work
[2] = system: SOD1 mutant mice; details: cited from earlier work

COCCOC(=O)C1=C(C)NC(C)=C(C(=O)OC(C)C)C1c1cccc([N+](=O)[O-])c1 (stereo not drawn) [nimodipine, Nimodipine]
slowing down the disease progression in ALS patients [1]: not effective

CN(C)c1ccc(O)c2c1C[C@H]1C[C@H]3[C@H](N(C)C)C(O)=C(C(N)=O)C(=O)[C@@]3(O)C(O)=C1C2=O [Minocycline, minocycline]
microglial activation and astrocytosis in SOD1^G37R mice ([2]; minocycline alone): attenuates microglial activation but not astrocytosis
progression and onset of disease in SOD1^G37R mice ([2]; single therapy): slowed down progression of disease in SOD1^G37R mice but without affecting the onset
